Data as given in PMC3146532.

The chains behind the UniProt entries cited, without tags or fusion partners. Where a name states a change or a piece, a line headed by the entry shows the natural chain unless it says otherwise.
UniProt Q9HAW4: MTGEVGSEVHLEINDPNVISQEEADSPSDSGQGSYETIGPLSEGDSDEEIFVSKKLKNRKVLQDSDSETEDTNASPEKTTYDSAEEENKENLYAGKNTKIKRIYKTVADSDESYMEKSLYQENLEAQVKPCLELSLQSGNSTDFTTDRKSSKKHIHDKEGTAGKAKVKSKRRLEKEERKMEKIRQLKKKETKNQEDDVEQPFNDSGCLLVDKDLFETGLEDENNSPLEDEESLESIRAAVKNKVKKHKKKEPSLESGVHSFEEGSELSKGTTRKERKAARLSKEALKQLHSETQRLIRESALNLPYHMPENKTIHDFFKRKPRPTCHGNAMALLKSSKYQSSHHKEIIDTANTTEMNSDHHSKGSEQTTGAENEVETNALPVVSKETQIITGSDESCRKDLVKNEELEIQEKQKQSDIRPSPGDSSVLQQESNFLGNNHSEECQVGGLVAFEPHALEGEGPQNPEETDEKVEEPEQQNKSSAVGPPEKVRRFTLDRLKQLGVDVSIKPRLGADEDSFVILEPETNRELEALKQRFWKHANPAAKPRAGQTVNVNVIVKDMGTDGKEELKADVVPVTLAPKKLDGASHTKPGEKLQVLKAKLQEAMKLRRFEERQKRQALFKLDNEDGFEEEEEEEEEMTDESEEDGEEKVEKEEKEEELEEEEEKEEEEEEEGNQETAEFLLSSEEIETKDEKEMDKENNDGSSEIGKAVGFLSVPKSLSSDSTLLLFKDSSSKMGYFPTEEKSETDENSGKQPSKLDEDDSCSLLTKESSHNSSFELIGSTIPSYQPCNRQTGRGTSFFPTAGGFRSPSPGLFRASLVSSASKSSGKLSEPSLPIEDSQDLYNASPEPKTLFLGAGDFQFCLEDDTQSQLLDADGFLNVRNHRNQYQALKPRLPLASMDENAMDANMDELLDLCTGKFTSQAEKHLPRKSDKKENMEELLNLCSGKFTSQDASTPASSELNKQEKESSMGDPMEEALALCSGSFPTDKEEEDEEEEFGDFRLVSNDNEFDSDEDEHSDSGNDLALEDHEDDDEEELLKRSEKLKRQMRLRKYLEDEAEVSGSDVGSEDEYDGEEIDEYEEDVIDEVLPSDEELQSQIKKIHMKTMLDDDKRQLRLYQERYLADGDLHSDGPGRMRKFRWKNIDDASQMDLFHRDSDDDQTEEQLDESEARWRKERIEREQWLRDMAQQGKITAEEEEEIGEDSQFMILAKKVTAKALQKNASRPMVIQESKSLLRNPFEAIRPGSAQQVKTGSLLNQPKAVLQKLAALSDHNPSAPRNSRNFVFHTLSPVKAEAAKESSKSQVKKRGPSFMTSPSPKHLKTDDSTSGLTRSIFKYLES
UniProt P23025: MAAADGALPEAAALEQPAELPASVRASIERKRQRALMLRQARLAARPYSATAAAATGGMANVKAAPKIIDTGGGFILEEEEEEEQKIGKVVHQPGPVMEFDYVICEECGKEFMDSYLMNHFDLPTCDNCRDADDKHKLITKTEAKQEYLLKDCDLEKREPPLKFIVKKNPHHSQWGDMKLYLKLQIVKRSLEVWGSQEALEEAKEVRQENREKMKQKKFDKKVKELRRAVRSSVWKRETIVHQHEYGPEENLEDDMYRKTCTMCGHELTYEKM
UniProt O14757: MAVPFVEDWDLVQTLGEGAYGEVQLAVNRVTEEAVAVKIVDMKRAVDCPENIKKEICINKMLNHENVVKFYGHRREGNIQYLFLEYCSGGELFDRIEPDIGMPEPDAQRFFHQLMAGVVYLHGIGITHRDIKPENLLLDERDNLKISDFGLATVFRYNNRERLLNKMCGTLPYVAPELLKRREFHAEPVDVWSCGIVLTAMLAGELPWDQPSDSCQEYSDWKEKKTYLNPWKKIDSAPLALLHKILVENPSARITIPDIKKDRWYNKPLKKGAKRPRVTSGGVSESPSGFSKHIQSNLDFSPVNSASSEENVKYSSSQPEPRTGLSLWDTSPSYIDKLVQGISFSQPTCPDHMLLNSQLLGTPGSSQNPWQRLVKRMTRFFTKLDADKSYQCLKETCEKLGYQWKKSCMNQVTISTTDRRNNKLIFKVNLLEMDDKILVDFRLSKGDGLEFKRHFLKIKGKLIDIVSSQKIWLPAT

Experiments:
Assay in all cases: pull-down
[1] = tested on: 9-1-1 complex (FLAG-Rad9-Hus1-Rad1); details: 10 mM Tris pH 7.4, 50 mM NaCl (oligo DNA) or 100 mM NaCl (plasmid; 200/300 mM for TopBP1 salt series), 10 ug/ml BSA, 10% glycerol, 0.01% NP-40, room temperature, 30 min, recombinant protein, protein details: FLAG on Rad9
[2] = biological target: T1, FLAG-ATRIP (UniProt Q8WXE1); details: without RPA, 10 mM Tris pH 7.4, 50 mM NaCl (oligo DNA) or 100 mM NaCl (plasmid; 200/300 mM for TopBP1 salt series), 10 ug/ml BSA, 10% glycerol, 0.01% NP-40, room temperature, 30 min, recombinant protein, protein details: FLAG
T1 sequence (looked up, limits assumed): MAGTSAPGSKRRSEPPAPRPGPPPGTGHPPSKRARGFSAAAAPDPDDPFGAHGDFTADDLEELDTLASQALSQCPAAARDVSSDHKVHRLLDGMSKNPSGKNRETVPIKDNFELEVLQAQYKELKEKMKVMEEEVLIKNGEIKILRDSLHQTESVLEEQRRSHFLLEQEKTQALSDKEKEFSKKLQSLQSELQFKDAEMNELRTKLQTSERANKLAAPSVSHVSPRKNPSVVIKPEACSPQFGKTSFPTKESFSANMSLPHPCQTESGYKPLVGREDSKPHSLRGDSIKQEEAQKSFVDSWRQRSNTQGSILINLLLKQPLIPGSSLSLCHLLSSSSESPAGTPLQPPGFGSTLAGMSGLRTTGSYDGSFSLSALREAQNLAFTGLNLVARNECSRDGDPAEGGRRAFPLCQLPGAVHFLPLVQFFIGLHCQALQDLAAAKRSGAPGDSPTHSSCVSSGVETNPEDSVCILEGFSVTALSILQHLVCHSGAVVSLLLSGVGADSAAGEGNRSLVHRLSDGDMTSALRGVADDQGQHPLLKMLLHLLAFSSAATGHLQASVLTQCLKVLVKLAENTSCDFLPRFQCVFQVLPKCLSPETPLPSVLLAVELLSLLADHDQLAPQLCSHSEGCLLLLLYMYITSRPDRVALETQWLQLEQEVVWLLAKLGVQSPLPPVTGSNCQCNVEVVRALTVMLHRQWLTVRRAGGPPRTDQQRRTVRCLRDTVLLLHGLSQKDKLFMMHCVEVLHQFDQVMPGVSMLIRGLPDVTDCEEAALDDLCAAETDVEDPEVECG

[3] = biological target: FLAG-Claspin (UniProt Q9HAW4); details: 10 mM Tris pH 7.4, 50 mM NaCl (oligo DNA) or 100 mM NaCl (plasmid; 200/300 mM for TopBP1 salt series), 10 ug/ml BSA, 10% glycerol, 0.01% NP-40, room temperature, 30 min, recombinant protein, protein details: FLAG
[4] = biological target: T2, FLAG-Timeless (UniProt Q9UNS1); details: 10 mM Tris pH 7.4, 50 mM NaCl (oligo DNA) or 100 mM NaCl (plasmid; 200/300 mM for TopBP1 salt series), 10 ug/ml BSA, 10% glycerol, 0.01% NP-40, room temperature, 30 min, recombinant protein, protein details: FLAG
T2 sequence (looked up, limits assumed): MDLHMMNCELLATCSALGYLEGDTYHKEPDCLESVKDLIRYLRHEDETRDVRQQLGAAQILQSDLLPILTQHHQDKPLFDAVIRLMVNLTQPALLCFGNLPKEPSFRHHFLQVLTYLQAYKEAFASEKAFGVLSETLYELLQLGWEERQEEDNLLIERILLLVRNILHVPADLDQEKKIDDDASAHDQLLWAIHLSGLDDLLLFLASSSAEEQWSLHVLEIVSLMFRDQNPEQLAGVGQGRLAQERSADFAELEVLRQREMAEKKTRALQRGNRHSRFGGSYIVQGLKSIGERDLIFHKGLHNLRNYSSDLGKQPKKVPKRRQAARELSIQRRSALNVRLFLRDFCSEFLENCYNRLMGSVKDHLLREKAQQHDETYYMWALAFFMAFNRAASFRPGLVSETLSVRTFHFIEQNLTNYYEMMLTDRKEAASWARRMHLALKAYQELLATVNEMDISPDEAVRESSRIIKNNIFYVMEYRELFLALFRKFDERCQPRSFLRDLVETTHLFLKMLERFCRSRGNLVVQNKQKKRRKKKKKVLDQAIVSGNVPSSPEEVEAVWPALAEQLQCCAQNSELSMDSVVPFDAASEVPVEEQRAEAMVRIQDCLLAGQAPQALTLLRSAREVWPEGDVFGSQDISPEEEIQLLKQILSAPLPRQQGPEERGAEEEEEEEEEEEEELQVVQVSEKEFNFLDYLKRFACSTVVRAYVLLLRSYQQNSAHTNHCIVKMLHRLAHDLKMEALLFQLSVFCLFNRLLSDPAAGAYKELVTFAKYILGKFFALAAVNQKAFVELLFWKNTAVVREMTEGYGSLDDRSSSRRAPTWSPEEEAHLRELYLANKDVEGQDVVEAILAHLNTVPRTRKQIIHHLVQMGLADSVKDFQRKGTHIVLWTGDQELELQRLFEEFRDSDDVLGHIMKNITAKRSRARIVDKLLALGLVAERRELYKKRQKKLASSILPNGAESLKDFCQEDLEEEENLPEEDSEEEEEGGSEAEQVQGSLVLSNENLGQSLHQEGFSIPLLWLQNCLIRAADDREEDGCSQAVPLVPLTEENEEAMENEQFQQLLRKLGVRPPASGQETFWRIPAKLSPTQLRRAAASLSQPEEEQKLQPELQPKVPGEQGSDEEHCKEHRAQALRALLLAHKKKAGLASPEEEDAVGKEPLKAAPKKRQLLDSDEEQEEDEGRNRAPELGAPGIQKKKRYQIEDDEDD

[5] = tested on: FLAG-Timeless + Tipin-His; details: 10 mM Tris pH 7.4, 50 mM NaCl (oligo DNA) or 100 mM NaCl (plasmid; 200/300 mM for TopBP1 salt series), 10 ug/ml BSA, 10% glycerol, 0.01% NP-40, room temperature, 30 min, recombinant protein, protein details: FLAG,His
[6] = biological target: MBP-XPA (UniProt P23025); details: 10 mM Tris pH 7.4, 50 mM NaCl (oligo DNA) or 100 mM NaCl (plasmid; 200/300 mM for TopBP1 salt series), 10 ug/ml BSA, 10% glycerol, 0.01% NP-40, room temperature, 30 min, recombinant protein, protein details: MBP
[7] = biological target: T3, Tipin-His (UniProt Q9BVW5); details: >10-fold less than fork at highest protein, 10 mM Tris pH 7.4, 50 mM NaCl (oligo DNA) or 100 mM NaCl (plasmid; 200/300 mM for TopBP1 salt series), 10 ug/ml BSA, 10% glycerol, 0.01% NP-40, room temperature, 30 min, recombinant protein, protein details: His
T3 sequence (looked up, limits assumed): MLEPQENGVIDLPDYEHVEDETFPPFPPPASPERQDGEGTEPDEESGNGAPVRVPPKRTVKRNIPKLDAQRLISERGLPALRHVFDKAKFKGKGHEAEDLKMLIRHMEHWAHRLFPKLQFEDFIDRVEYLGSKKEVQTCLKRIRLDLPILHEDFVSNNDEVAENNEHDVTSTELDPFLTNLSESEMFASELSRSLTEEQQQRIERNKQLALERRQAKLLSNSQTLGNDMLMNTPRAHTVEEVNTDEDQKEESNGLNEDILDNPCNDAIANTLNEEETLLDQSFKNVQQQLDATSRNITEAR

[8] = biological target: T4, FAAP24-His (UniProt Q9BTP7); details: 10 mM Tris pH 7.4, 50 mM NaCl (oligo DNA) or 100 mM NaCl (plasmid; 200/300 mM for TopBP1 salt series), 10 ug/ml BSA, 10% glycerol, 0.01% NP-40, room temperature, 30 min; recombinant protein; protein details: His (pET21b); label: 5'-biotin on Oligo1
T4 sequence (looked up, limits assumed): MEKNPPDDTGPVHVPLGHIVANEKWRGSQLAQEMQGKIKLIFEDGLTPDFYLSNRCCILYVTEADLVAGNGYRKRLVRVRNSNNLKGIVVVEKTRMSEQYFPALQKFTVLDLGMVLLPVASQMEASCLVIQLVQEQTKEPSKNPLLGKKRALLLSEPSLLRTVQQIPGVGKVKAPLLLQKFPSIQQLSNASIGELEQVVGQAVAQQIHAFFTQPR

[9] = biological target: His-Chk1 (UniProt O14757); details: 10 mM Tris pH 7.4, 50 mM NaCl (oligo DNA) or 100 mM NaCl (plasmid; 200/300 mM for TopBP1 salt series), 10 ug/ml BSA, 10% glycerol, 0.01% NP-40, room temperature, 30 min; recombinant protein; protein details: His; label: 5'-biotin on Oligo1
[10] = tested on: RPA (heterotrimer); details: up to 10-fold less than ssDNA and fork; 10 mM Tris pH 7.4, 50 mM NaCl (oligo DNA) or 100 mM NaCl (plasmid; 200/300 mM for TopBP1 salt series), 10 ug/ml BSA, 10% glycerol, 0.01% NP-40, room temperature, 30 min; recombinant protein; label: 5'-biotin on Oligo1
[11] = label: 5'-biotin, single-stranded DNA

Measured: binding result

GACGCTGCCGAATTCTGGCTTGCTAGGACATCTTTGCCCACGTTGACCCG [ssDNA 50-mer (Oligo1)]
binds more weakly: [1]; [11] | [2]; [11] | [3]; [11] | [4]; [11] | [5]; [11] | [6]; [11] | [7]; [11]

GACGCTGCCGAATTCTGGCTTGCTAGGACATCTTTGCCCACGTTGACCCG (double strand) [dsDNA 50-mer (Oligo1/Oligo3)]
binds more weakly: [1]; label: 5'-biotin on Oligo1 | [8] | [2]; label: 5'-biotin on Oligo1 | [3]; label: 5'-biotin on Oligo1 | [4]; label: 5'-biotin on Oligo1 | [5]; label: 5'-biotin on Oligo1 | [9] | [6]; label: 5'-biotin on Oligo1 | [10] | [7]; label: 5'-biotin on Oligo1

For at least one entry, the source does not settle the construct or the ends of the probe. A weaker result is weaker than the reference pair of the same experiment. For some assays here: At least one verdict was read from the data and is not stated in words by the source. For some assays here: Where a protein sequence is shown, tags need not be part of it.
